PubChem BioAssay AID1259405, NCATS | 2018
Screen: 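Mouse-designed siRNAs used to find CHO productivity engineering targets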 (primary screen). Cells: Chinese hamster CHO-K1 ovary cells with stable secreted eGFP expression. Reagents: single siRNA against mouse genes, 0.8 pmol siRNA per well (2 µl of 400 nM stock). Duration: 3 days. Measured: 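Percent of the per-plate non-targeting control median for intracellular GFP per well by laser scanning cytometry and for cell viability by ATP luminescence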. Direction: GFP, % of control: higher = more GFP per well, higher productivity; viability (ATP), % of control: higher = more viable cells (more ATP). Active means: 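a knock-down is called active if GFP reaches 120% or more of non-targeting control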.
In all, the deposit lists about 50,000 reagents; this is a part drawn at random. About 4,000 of all reagents (8%) were called active. 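Mouse siRNA library applied to hamster cells; one well for each siRNA.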 Unmarked entries are inactive. Reagents against one gene are numbered here.

no.	gene	reagent no.	GFP, % of control	viability (ATP), % of control
1	Klk1b4 (kallikrein 1-related pepidase b4)	1	84.3	72.7
2	Klk1b4 (kallikrein 1-related pepidase b4)	2	52.8	56.8
3	Klk1b4 (kallikrein 1-related pepidase b4)	3	65.3	77.3
4	Ctsl (cathepsin L)	1	93	63.8
5	Ctsl (cathepsin L)	2	58.1	64.9
6	Ctsl (cathepsin L)	3	68.7	61.3
7	Rps19bp1 (ribosomal protein S19 binding protein 1)	1	98	69.1
8	Rps19bp1 (ribosomal protein S19 binding protein 1)	2	145 (active)	46.6
9	Rps19bp1 (ribosomal protein S19 binding protein 1)	3	63.2	62
10	Cops4 (COP9 signalosome subunit 4)	1	78.7	110
11	Cops4 (COP9 signalosome subunit 4)	2	25.2	34.9
12	Cops4 (COP9 signalosome subunit 4)	3	122 (active)	167
13	Slc12a4	1	90.9	95.7
14	Slc12a4	2	163 (active)	66.5
15	Slc12a4	3	83.7	82.8
16	Or5b97 (olfactory receptor family 5 subfamily B member 97)	1	145 (active)	73.2
17	Or5b97 (olfactory receptor family 5 subfamily B member 97)	2	74.6	78.8
18	Or5b97 (olfactory receptor family 5 subfamily B member 97)	3	26.8	22.3
19	Casp1 (caspase 1)	1	65	72.8
20	Casp1 (caspase 1)	2	58.9	79
21	Casp1 (caspase 1)	3	50	84.7
22	Ccdc32 (coiled-coil domain containing 32)	1	65.2	88.4
23	Ccdc32 (coiled-coil domain containing 32)	2	87.4	72.7
24	Ccdc32 (coiled-coil domain containing 32)	3	144 (active)	84.5
25	Wdr13 (WD repeat domain 13)	1	41.1	25.3
26	Wdr13 (WD repeat domain 13)	2	36.1	26.4
27	Wdr13 (WD repeat domain 13)	3	67.3	84
28	Dnah14 (dynein, axonemal, heavy chain 14)	1	47.2	63.3
29	Dnah14 (dynein, axonemal, heavy chain 14)	2	61.4	55.3
30	Dnah14 (dynein, axonemal, heavy chain 14)	3	37.6	67.5
31	Scfd1 (Sec1 family domain containing 1)	1	150 (active)	86.7
32	Scfd1 (Sec1 family domain containing 1)	2	83	58.7
33	Scfd1 (Sec1 family domain containing 1)	3	58	78.1
34	4930519G04Rik (RIKEN cDNA 4930519G04 gene)	1	86.3	87.3
35	4930519G04Rik (RIKEN cDNA 4930519G04 gene)	2	117	100
36	4930519G04Rik (RIKEN cDNA 4930519G04 gene)	3	68.5	85.6
37	Pgam5 (phosphoglycerate mutase family member 5)	1	72.4	65
38	Pgam5 (phosphoglycerate mutase family member 5)	2	74.7	98.2
39	Pgam5 (phosphoglycerate mutase family member 5)	3	89.6	104
40	Arhgef3 (Rho guanine nucleotide exchange factor 3)	1	65.1	68.6
41	Arhgef3 (Rho guanine nucleotide exchange factor 3)	2	75.4	87
42	Arhgef3 (Rho guanine nucleotide exchange factor 3)	3	74.5	84
43	Fastkd5 (FAST kinase domains 5)	1	107	96
44	Fastkd5 (FAST kinase domains 5)	2	39.8	32.6
45	Fastkd5 (FAST kinase domains 5)	3	112	68
46	Trappc6b (trafficking protein particle complex 6B)	1	65.3	75.1
47	Trappc6b (trafficking protein particle complex 6B)	2	74.5	52.2
48	Trappc6b (trafficking protein particle complex 6B)	3	91.7	83
49	Cacng1 (calcium channel, voltage-dependent, gamma subunit 1)	1	86	113
50	Cacng1 (calcium channel, voltage-dependent, gamma subunit 1)	2	108	89.2
51	Fam3b (FAM3 metabolism regulating signaling molecule B)	1	149 (active)	146
52	Fam3b (FAM3 metabolism regulating signaling molecule B)	2	71.4	92.7
53	Slc6a17	1	84	93.7
54	Slc6a17	2	90.9	102
55	Slc6a17	3	127 (active)	70.6
56	Actr5 (ARP5 actin-related protein 5)	1	74.9	74.3
57	Actr5 (ARP5 actin-related protein 5)	2	81.6	82.1
58	Ildr1 (immunoglobulin-like domain containing receptor 1)	1	69.6	51.5
59	Ildr1 (immunoglobulin-like domain containing receptor 1)	2	165 (active)	125
60	Dio3 (deiodinase, iodothyronine type III)	1	105	103
61	Dio3 (deiodinase, iodothyronine type III)	2	97.4	81.4
62	Dio3 (deiodinase, iodothyronine type III)	3	61.6	77.4
63	Fbxo31 (F-box protein 31)	1	93.6	85.3
64	Fbxo31 (F-box protein 31)	2	104	50.3
65	Fbxo31 (F-box protein 31)	3	126 (active)	98.5
66	Kcnu1 (potassium channel, subfamily U, member 1)	1	129 (active)	80
67	Kcnu1 (potassium channel, subfamily U, member 1)	2	154 (active)	94.8
68	Kcnu1 (potassium channel, subfamily U, member 1)	3	57.5	83.1
69	Chchd3 (coiled-coil-helix-coiled-coil-helix domain containing 3)	1	69.9	79.7
70	Chchd3 (coiled-coil-helix-coiled-coil-helix domain containing 3)	2	117	61.2
71	Chchd3 (coiled-coil-helix-coiled-coil-helix domain containing 3)	3	106	114
72	Fxyd7 (FXYD domain-containing ion transport regulator 7)	1	62.2	83.6
73	Fxyd7 (FXYD domain-containing ion transport regulator 7)	2	60.9	42.2
74	Fxyd7 (FXYD domain-containing ion transport regulator 7)	3	69.2	61.8
75	Hnrnpab (heterogeneous nuclear ribonucleoprotein A/B)	1	74.1	56.1
76	Hnrnpab (heterogeneous nuclear ribonucleoprotein A/B)	2	47.2	86.2
77	Hnrnpab (heterogeneous nuclear ribonucleoprotein A/B)	3	115	94.6
78	Tmem41a (transmembrane protein 41a)	1	115	70.8
79	Tmem41a (transmembrane protein 41a)	2	116	91.9
80	Tmem41a (transmembrane protein 41a)	3	104	96.1
81	Mst1r	1	68	66
82	Tecta (tectorin alpha)	1	66.6	66.1
83	Tecta (tectorin alpha)	2	111	81.7
84	Tecta (tectorin alpha)	3	70.3	75.1
